Test results taken from ChEMBL document CHEMBL4316593 (Eur J Med Chem, 2019).
Further values from the same series stand in other lists.

Legend:
Assay type in all cases: cell-based
Conditions in all cases: U-87MG ATCC
[1] = Inhibition of RTK/PI3K/AKT/mTOR signaling in human U87 cells assessed as down regulation of TRIP12 gene expression at cytotoxic IC50 measured after 48 hrs relative to control
[2] = Inhibition of RTK/PI3K/AKT/mTOR signaling in human U87 cells assessed as up regulation of tRNA splicing endonuclease subunit 34 gene expression at cytotoxic IC50 measured after 48 hrs relative to control
[3] = Inhibition of RTK/PI3K/AKT/mTOR signaling in human U87 cells assessed as down regulation of OCRL gene expression at cytotoxic IC50 measured after 48 hrs relative to control
[4] = Inhibition of RTK/PI3K/AKT/mTOR signaling in human U87 cells assessed as down regulation of MAN2B2 gene expression at cytotoxic IC50 measured after 48 hrs relative to control
[5] = Inhibition of RTK/PI3K/AKT/mTOR signaling in human U87 cells assessed as up regulation of tropomyosin 2 (beta) gene expression at cytotoxic IC50 measured after 48 hrs relative to control
[6] = Inhibition of RTK/PI3K/AKT/mTOR signaling in human U87 cells assessed as down regulation of PANK2 gene expression at cytotoxic IC50 measured after 48 hrs relative to control
[7] = Inhibition of RTK/PI3K/AKT/mTOR signaling in human U87 cells assessed as down regulation of TBPL1 gene expression at cytotoxic IC50 measured after 48 hrs relative to control
[8] = Inhibition of RTK/PI3K/AKT/mTOR signaling in human U87 cells assessed as up regulation of two pore segment channel 1 gene expression at cytotoxic IC50 measured after 48 hrs relative to control
[9] = Inhibition of RTK/PI3K/AKT/mTOR signaling in human U87 cells assessed as up regulation of cadherin EGF LAG seven-pass G-type receptor 3 gene expression at cytotoxic IC50 measured after 48 hrs relative to control
[10] = Inhibition of RTK/PI3K/AKT/mTOR signaling in human U87 cells assessed as up regulation of SLC38A2 gene expression at cytotoxic IC50 measured after 48 hrs relative to control
[11] = Inhibition of RTK/PI3K/AKT/mTOR signaling in human U87 cells assessed as down regulation of TSPYL1 gene expression at cytotoxic IC50 measured after 48 hrs relative to control
[12] = Inhibition of RTK/PI3K/AKT/mTOR signaling in human U87 cells assessed as up regulation of adenylate cyclase 9 gene expression at cytotoxic IC50 measured after 48 hrs relative to control
[13] = Inhibition of RTK/PI3K/AKT/mTOR signaling in human U87 cells assessed as down regulation of ID3 gene expression at cytotoxic IC50 measured after 48 hrs relative to control
[14] = Inhibition of RTK/PI3K/AKT/mTOR signaling in human U87 cells assessed as up regulation of BCL2 interacting killer gene expression at cytotoxic IC50 measured after 48 hrs relative to control
[15] = Inhibition of RTK/PI3K/AKT/mTOR signaling in human U87 cells assessed as up regulation of gasdermin B gene expression at cytotoxic IC50 measured after 48 hrs relative to control
[16] = Inhibition of RTK/PI3K/AKT/mTOR signaling in human U87 cells assessed as up regulation of FBXO2 gene expression at cytotoxic IC50 measured after 48 hrs relative to control
[17] = Inhibition of RTK/PI3K/AKT/mTOR signaling in human U87 cells assessed as up regulation of Rho GTPase activating protein 19 gene expression at cytotoxic IC50 measured after 48 hrs relative to control
[18] = Inhibition of RTK/PI3K/AKT/mTOR signaling in human U87 cells assessed as down regulation of STPG1 gene expression at cytotoxic IC50 measured after 48 hrs relative to control
[19] = Inhibition of RTK/PI3K/AKT/mTOR signaling in human U87 cells assessed as up regulation of TMED10 gene expression at cytotoxic IC50 measured after 48 hrs relative to control
[20] = Inhibition of RTK/PI3K/AKT/mTOR signaling in human U87 cells assessed as up regulation of PGRMC2 gene expression at cytotoxic IC50 measured after 48 hrs relative to control
[21] = Inhibition of RTK/PI3K/AKT/mTOR signaling in human U87 cells assessed as up regulation of PPFIBP1 gene expression at cytotoxic IC50 measured after 48 hrs relative to control
[22] = Inhibition of RTK/PI3K/AKT/mTOR signaling in human U87 cells assessed as up regulation of CYP2R1 gene expression at cytotoxic IC50 measured after 48 hrs relative to control
[23] = Inhibition of RTK/PI3K/AKT/mTOR signaling in human U87 cells assessed as up regulation of nectin cell adhesion molecule 3 gene expression at cytotoxic IC50 measured after 48 hrs relative to control
[24] = Inhibition of RTK/PI3K/AKT/mTOR signaling in human U87 cells assessed as down regulation of SNN gene expression at cytotoxic IC50 measured after 48 hrs relative to control
[25] = Inhibition of RTK/PI3K/AKT/mTOR signaling in human U87 cells assessed as down regulation of TIMP1 gene expression at cytotoxic IC50 measured after 48 hrs relative to control
[26] = Inhibition of RTK/PI3K/AKT/mTOR signaling in human U87 cells assessed as up regulation of adenosylhomocysteinase gene expression at cytotoxic IC50 measured after 48 hrs relative to control
[27] = Inhibition of RTK/PI3K/AKT/mTOR signaling in human U87 cells assessed as up regulation of TM9SF4 gene expression at cytotoxic IC50 measured after 48 hrs relative to control
[28] = Inhibition of RTK/PI3K/AKT/mTOR signaling in human U87 cells assessed as up regulation of TMEM94 gene expression at cytotoxic IC50 measured after 48 hrs relative to control
[29] = Inhibition of RTK/PI3K/AKT/mTOR signaling in human U87 cells assessed as down regulation of RBM19 gene expression at cytotoxic IC50 measured after 48 hrs relative to control
[30] = Inhibition of RTK/PI3K/AKT/mTOR signaling in human U87 cells assessed as up regulation of TGIF2 gene expression at cytotoxic IC50 measured after 48 hrs relative to control
[31] = Inhibition of RTK/PI3K/AKT/mTOR signaling in human U87 cells assessed as down regulation of DBR1 gene expression at cytotoxic IC50 measured after 48 hrs relative to control
[32] = Inhibition of RTK/PI3K/AKT/mTOR signaling in human U87 cells assessed as down regulation of EIF4E3 gene expression at cytotoxic IC50 measured after 48 hrs relative to control

CC(=O)C(=NNc1ccccc1C#N)C(C)=O
log2FC [1]: -0.925
log2FC [2]: 0.654
log2FC [3]: -0.91
log2FC [4]: -1.11
log2FC [5]: 0.674
log2FC [6]: -0.636
log2FC [7]: -0.932
log2FC [8]: 1.23
log2FC [9]: 1.07
log2FC [10]: 2.37
log2FC [11]: -0.453
log2FC [12]: 1.24
log2FC [13]: -1.13
log2FC [14]: 1.18
log2FC [15]: 0.928
log2FC [16]: 0.593
log2FC [17]: 0.851
log2FC [18]: -0.945
log2FC [19]: 0.582
log2FC [20]: 0.533
log2FC [21]: 0.485
log2FC [22]: 1.81
log2FC [23]: 0.899
log2FC [24]: -0.834
log2FC [25]: -0.978
log2FC [26]: 0.783
log2FC [27]: 0.451
log2FC [28]: 0.605
log2FC [29]: -0.934
log2FC [30]: 1.77
log2FC [31]: -0.761
log2FC [32]: -1.02
